{"source": "PubChem BioAssay AID686943 – Drosophila RNAi Screening Center | 2013", "aim": "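Fly genes whose loss alters ERK activation after insulin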 (primary screen)", "cells": "Drosophila S2R+ haemocyte-like cells expressing YFP-tagged ERK (Rolled)", "reagent": "long dsRNA against Drosophila genes", "conditions": "insulin stimulation versus unstimulated cells; dose and duration not given", "detection": "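Antibody staining for doubly phosphorylated ERK divided by ERK-YFP signal, as plate z-scores, in insulin-treated and untreated cells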", "reading the numbers": "replicate 1, z-score of dpERK with insulin and replicate 2, z-score of dpERK with insulin: higher = more active ERK per ERK-YFP after insulin", "note": "The deposit covers about 23,000 reagents; below is an unselected part of those with a known target gene and a result. 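Extra replicates exist only for a retested subset of genes; insulin dose and duration not given; both raised and lowered dpERK matter.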 Names joined by + are all predicted targets of the reagent. Not all columns of the deposit are shown. The record does not give: the amount of reagent, the time to read-out."}
The opening 2 records, ahead of the listing:
{"gene knocked down": "CG13850", "DRSC id": "DRSC14700", "replicate 1, z-score of dpERK with insulin": 0.54, "replicate 2, z-score of dpERK with insulin": -0.35}
{"gene knocked down": "ACOX1", "DRSC id": "DRSC05941", "replicate 1, z-score of dpERK with insulin": -0.63, "replicate 2, z-score of dpERK with insulin": -0.06}

The listing, from the start:
{"gene knocked down": "CG13850", "DRSC id": "DRSC14700", "replicate 1, z-score of dpERK with insulin": 0.54, "replicate 2, z-score of dpERK with insulin": -0.35}
{"gene knocked down": "ACOX1", "DRSC id": "DRSC05941", "replicate 1, z-score of dpERK with insulin": -0.63, "replicate 2, z-score of dpERK with insulin": -0.06}
{"gene knocked down": "Epp", "DRSC id": "DRSC14607", "replicate 1, z-score of dpERK with insulin": -0.19, "replicate 2, z-score of dpERK with insulin": -0.34}
{"gene knocked down": "CG33914", "DRSC id": "DRSC05033", "replicate 1, z-score of dpERK with insulin": -0.3, "replicate 2, z-score of dpERK with insulin": -0.28}
{"gene knocked down": "CG33914", "DRSC id": "DRSC05034", "replicate 1, z-score of dpERK with insulin": 0.01, "replicate 2, z-score of dpERK with insulin": -0.14}
{"gene knocked down": "CG9825", "DRSC id": "DRSC04569", "replicate 1, z-score of dpERK with insulin": -0.6, "replicate 2, z-score of dpERK with insulin": 0.31}
{"gene knocked down": "CG13004", "DRSC id": "DRSC19523", "replicate 1, z-score of dpERK with insulin": 0.58, "replicate 2, z-score of dpERK with insulin": 0.36}
{"gene knocked down": "Cyp12d1-d + Cyp12d1-p", "DRSC id": "DRSC21507", "replicate 1, z-score of dpERK with insulin": 0.7, "replicate 2, z-score of dpERK with insulin": 0.48}
{"gene knocked down": "CheA7a", "DRSC id": "DRSC17965", "replicate 1, z-score of dpERK with insulin": 0.79, "replicate 2, z-score of dpERK with insulin": 0.27}
{"gene knocked down": "CG31735", "DRSC id": "DRSC01518", "replicate 1, z-score of dpERK with insulin": -0.5, "replicate 2, z-score of dpERK with insulin": 0.78}
{"gene knocked down": "xit", "DRSC id": "DRSC18364", "replicate 1, z-score of dpERK with insulin": 0.77, "replicate 2, z-score of dpERK with insulin": 0.45}
{"gene knocked down": "CG42720 (retired record)", "DRSC id": "DRSC22549", "replicate 1, z-score of dpERK with insulin": 0.45, "replicate 2, z-score of dpERK with insulin": 0.85}
{"gene knocked down": "CG32988", "DRSC id": "DRSC02692", "replicate 1, z-score of dpERK with insulin": 1, "replicate 2, z-score of dpERK with insulin": 0.12}
{"gene knocked down": "Ets65A", "DRSC id": "DRSC09968", "replicate 1, z-score of dpERK with insulin": 0.16, "replicate 2, z-score of dpERK with insulin": 0.65}
{"gene knocked down": "Ets65A", "DRSC id": "DRSC10738", "replicate 1, z-score of dpERK with insulin": -0.25, "replicate 2, z-score of dpERK with insulin": -0.89}
{"gene knocked down": "Ets65A", "DRSC id": "DRSC11164", "replicate 1, z-score of dpERK with insulin": -0.64, "replicate 2, z-score of dpERK with insulin": 1.13}
{"gene knocked down": "Obp47a", "DRSC id": "DRSC06255", "replicate 1, z-score of dpERK with insulin": -1.06, "replicate 2, z-score of dpERK with insulin": -1.34}
{"gene knocked down": "CG15043", "DRSC id": "DRSC19619", "replicate 1, z-score of dpERK with insulin": 0.15, "replicate 2, z-score of dpERK with insulin": -0.17}
{"gene knocked down": "jim", "DRSC id": "DRSC11889", "replicate 1, z-score of dpERK with insulin": 0.29, "replicate 2, z-score of dpERK with insulin": 0.5}
{"gene knocked down": "ND-39", "DRSC id": "DRSC11791", "replicate 1, z-score of dpERK with insulin": 0.04, "replicate 2, z-score of dpERK with insulin": 0.01}
{"gene knocked down": "Cul3", "DRSC id": "DRSC03537", "replicate 1, z-score of dpERK with insulin": 0.61, "replicate 2, z-score of dpERK with insulin": 0.5}
{"gene knocked down": "Cul3", "DRSC id": "DRSC21525", "replicate 1, z-score of dpERK with insulin": -0.11, "replicate 2, z-score of dpERK with insulin": 0.5}
